# Measurements published in patent US20190350895A1, “PHOTOCHROMATIC MODULATION WITH FLUORESCEIN FOR THE TREATMENT OF PHOTO-OCULODYNIA AND BLEPHAROSPASM” (Baylor College of Medicine, priority 2016, published 2019).
# At least one compound was matched to its structure with a doubt left.
# System: blepharospasm
# Assay: Clinical observation of sensory symptoms and motor signs of blepharospasm with fluorescein dye behind a scleral contact lens
# Assay type: in vivo, human
# Conditions: fluorescein dye placed in the fluid reservoir behind a scleral contact lens
compound,measurement,value
O=C1OC2(c3ccc(O)cc3Oc3cc(O)ccc32)c2ccccc21 [fluorescein],sensory symptoms and motor signs of blepharospasm,dramatic improvement
